Data as given in PubChem BioAssay AID1259275 (Sanger Institute, 2017)
Screen: 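Kinome and custom colorectal gene library screened for lethal knock-downs and drug partners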 (primary screen). Cells: COLO320HSR human colorectal cancer cells. Knock-down reagent: siRNA pool against human genes. Treatment: anchor drug added one day after transfection: BYL719 at 1 µM, cetuximab at 5 µg/ml or trametinib at 10 nM; DMSO as vehicle arm. Measurement: 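Replicate-mean viability versus non-targeting pool control, robust z-score without drug, and per-drug synergy scores for BYL719 at 1 µM, cetuximab at 5 µg/ml and trametinib at 10 nM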. Reading the numbers: robust z-score, siRNA alone: higher = more viable cells; strongly negative means essential; viability, knock-down alone (DMSO): higher = more viable cells; synergy score with BYL719: higher = stronger combined killing with drug. Rule for the call: 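a gene is called essential when its robust z-score without drug falls below -3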. Calls: active = essential (siRNA alone); inactive = no change (siRNA alone).
The whole screen tested 794 reagents; this is an unselected part. 13 of them (1.6%) were called active. 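Calls mark knock-downs lethal by themselves, not drug synergy; drugs went in a day after transfection, with DMSO as vehicle.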 Viability is capped at 1. Further read-outs or replicates are left out here. Reagent sequences are not shown. Not stated in the record: the amount of reagent, the time to read-out.

no.	gene knocked down	robust z-score, siRNA alone	viability, knock-down alone (DMSO) (fraction of control)	synergy score with BYL719	Outcome
1	PRKAR1A	-0.252	0.912	-0.141	inactive
2	ITK (IL2 inducible T cell kinase)	0.422	0.973	-0.14	inactive
3	PCK1 (phosphoenolpyruvate carboxykinase 1)	0.726	1	0.0192	inactive
4	NEK11 (NIMA related kinase 11)	-0.4	0.898	-0.157	inactive
5	MARK3 (microtubule affinity regulating kinase 3)	0.726	1	-0.0891	inactive
6	PKM (pyruvate kinase M1/2)	-2.44	0.715	-0.0833	inactive
7	KCNH8 (potassium voltage-gated channel subfamily H member 8)	0.584	0.987	-0.0887	inactive
8	BTK (Bruton tyrosine kinase)	-0.504	0.889	-0.199	inactive
9	DGKQ (diacylglycerol kinase theta)	-1.54	0.796	-0.0784	inactive
10	TJP2 (tight junction protein 2)	0.537	0.983	-0.0589	inactive
11	RPS6KA5 (ribosomal protein S6 kinase A5)	-1.2	0.826	-0.176	inactive
12	STK17A (serine/threonine kinase 17a)	0.127	0.946	-0.0522	inactive
13	MOK (MOK protein kinase)	-0.124	0.923	-0.15	inactive
14	TRIB1 (tribbles pseudokinase 1)	0.726	1	-0.0927	inactive
15	IKBKB (inhibitor of nuclear factor kappa B kinase subunit beta)	-0.664	0.875	-0.035	inactive
16	FXR1 (FMR1 autosomal homolog 1)	0.726	1	-0.296	inactive
17	FN1 (fibronectin 1)	0.726	1	-0.0404	inactive
18	EPHB6 (EPH receptor B6)	0.726	1	-0.106	inactive
19	GUCY2F (guanylate cyclase 2F, retinal)	0.726	1	-0.115	inactive
20	PI4K2A (phosphatidylinositol 4-kinase type 2 alpha)	-0.0942	0.926	-0.0749	inactive
21	EFNA4 (ephrin A4)	0.552	0.984	0.0293	inactive
22	PAPSS1 (3'-phosphoadenosine 5'-phosphosulfate synthase 1)	0.726	1	-0.131	inactive
23	ELP1 (elongator acetyltransferase complex subunit 1)	-0.175	0.919	-0.137	inactive
24	STK32C (serine/threonine kinase 32C)	0.726	1	-0.1	inactive
25	ALPK3 (alpha kinase 3)	0.294	0.961	-0.185	inactive
26	CKS1B (CDC28 protein kinase regulatory subunit 1B)	0.429	0.973	-0.0944	inactive
27	MAST3 (microtubule associated serine/threonine kinase 3)	-0.653	0.875	-0.03	inactive
28	PHKG2 (phosphorylase kinase catalytic subunit gamma 2)	0.726	1	-0.171	inactive
29	CDK12 (cyclin dependent kinase 12)	-0.3	0.907	0.057	inactive
30	MAP3K20 (mitogen-activated protein kinase kinase kinase 20)	0.726	1	-0.296	inactive
31	PRKCG (protein kinase C gamma)	0.726	1	-0.0142	inactive
32	MKNK2 (MAPK interacting serine/threonine kinase 2)	0.511	0.981	-0.12	inactive
33	CRKL (CRK like proto-oncogene, adaptor protein)	0.726	1	-0.0668	inactive
34	TNK2 (tyrosine kinase non receptor 2)	0.726	1	-0.286	inactive
35	MAPK13 (mitogen-activated protein kinase 13)	0.57	0.986	-0.101	inactive
36	CSNK1A1L (casein kinase 1 alpha 1 like)	0.619	0.99	-0.141	inactive
37	PTK7 (protein tyrosine kinase 7 (inactive))	-1.11	0.834	-0.0291	inactive
38	IKBKE (inhibitor of nuclear factor kappa B kinase subunit epsilon)	-1.05	0.84	-0.157	inactive
39	PFKP (phosphofructokinase, platelet)	-1.21	0.825	-0.112	inactive
40	DGKG (diacylglycerol kinase gamma)	0.205	0.953	-0.0608	inactive
41	MAP2K5 (mitogen-activated protein kinase kinase 5)	0.212	0.954	-0.0171	inactive
42	TRPM7	-0.244	0.912	-0.0963	inactive
43	ADGRL2 (adhesion G protein-coupled receptor L2)	0.726	1	-0.204	inactive
44	PRKACG (protein kinase cAMP-activated catalytic subunit gamma)	-0.933	0.85	-0.122	inactive
45	STK16 (serine/threonine kinase 16)	0.726	1	-0.0781	inactive
46	SOS2 (SOS Ras/Rho guanine nucleotide exchange factor 2)	0.59	0.988	-0.0279	inactive
47	CASP8 (caspase 8)	0.726	1	-0.243	inactive
48	ERN1 (endoplasmic reticulum to nucleus signaling 1)	0.726	1	-0.0908	inactive
49	UHMK1 (U2AF homology motif kinase 1)	-1.75	0.777	-0.169	inactive
50	EXOSC10 (exosome component 10)	-0.11	0.925	-0.0692	inactive
51	RIPK2 (receptor interacting serine/threonine kinase 2)	0.0361	0.938	0.0233	inactive
52	EPHB4 (EPH receptor B4)	0.361	0.967	-0.274	inactive
53	SPHK1 (sphingosine kinase 1)	-0.489	0.89	-0.159	inactive
54	ROR2 (ROR family WNT receptor 2)	0.726	1	-0.12	inactive
55	KIT (KIT proto-oncogene, receptor tyrosine kinase)	0.551	0.984	-0.122	inactive
56	PFKFB1 (6-phosphofructo-2-kinase/fructose-2,6-biphosphatase 1)	0.24	0.956	0.0413	inactive
57	MAST2 (microtubule associated serine/threonine kinase 2)	-0.0736	0.928	-0.209	inactive
58	COASY (Coenzyme A synthase)	0.0974	0.943	0.0331	inactive
59	NEK2 (NIMA related kinase 2)	0.726	1	-0.0413	inactive
60	RELA (RELA proto-oncogene, NF-kB subunit)	0.0121	0.936	-0.00249	inactive
61	CDKL1 (cyclin dependent kinase like 1)	0.693	0.997	-0.111	inactive
62	SIK2 (salt inducible kinase 2)	-0.273	0.91	-0.0756	inactive
63	PANK3 (pantothenate kinase 3)	0.726	1	-0.231	inactive

8 consecutive entries already listed, for reference:
no.	gene knocked down	robust z-score, siRNA alone	viability, knock-down alone (DMSO) (fraction of control)	synergy score with BYL719	Outcome
38	IKBKE (inhibitor of nuclear factor kappa B kinase subunit epsilon)	-1.05	0.84	-0.157	inactive
39	PFKP (phosphofructokinase, platelet)	-1.21	0.825	-0.112	inactive
40	DGKG (diacylglycerol kinase gamma)	0.205	0.953	-0.0608	inactive
41	MAP2K5 (mitogen-activated protein kinase kinase 5)	0.212	0.954	-0.0171	inactive
42	TRPM7	-0.244	0.912	-0.0963	inactive
43	ADGRL2 (adhesion G protein-coupled receptor L2)	0.726	1	-0.204	inactive
44	PRKACG (protein kinase cAMP-activated catalytic subunit gamma)	-0.933	0.85	-0.122	inactive
45	STK16 (serine/threonine kinase 16)	0.726	1	-0.0781	inactive
